Results: patent US20030181390A1, “Amino acid conjugates providing for sustained systemic concentrations of GABA analogues” (priority 2002, published 2003)
Some entries share one result that the patent states for a list of compounds. At least one compound was matched to its structure with a doubt left.

Assay: Caco-2 homogenate S9 stability / release of gabapentin
Type: in vitro ADME
Conditions: incubation with Caco-2 homogenate for 1 hour
Protocol: The stability of aminoacyl-gabapentin conjugates was evaluated by incubating the conjugates in the various tissue and enzyme-containing preparations listed in Table 1 below.
Tissue homogenates and plasma samples were obtained from commercial sources (Pel-Freez Biologicals, Rogers, Ariz., and GenTest Corporation, Woburn, Mass.). Stability of prodrugs toward the specific enzyme aminopeptidase was also evaluated by incubation with the purified enzyme. Experimental conditions used for the in vitro studies were as follows. Each preparation was incubated with test compound at 37° C. for one hour. Aliquots (50 μL) were removed at 0, 30, and 60 min and quenched with 0.1% trifluoroacetic acid in acetonitrile. Samples were then centrifuged and analyzed for the presence of prodrug and released gabapentin by LC/MS/MS as described below.
Concentrations of prodrug or gabapentin in tissue extracts were determined by direct injection onto an API 2000 LC/MS/MS equipped with an Agilent 1100 binary pump and autosampler. Separation was achieved using a 3.5 μm Zorbax Ellipse XDB-C8 4.4×150 mm column heated to 45° C. during the analysis. The mobile phases were: 0.1% formic acid in water (A) and 0.1% formic acid in acetonitrile (B). The gradient condition was: 2% B for 0.5 min, increasing to 90% B in 2.0 min, maintained for 2.5 min and returning to 2% B for 2 min. A TurboIonSpray source was used on the API 2000. The analysis was performed in the positive ion mode and MRM transitions of 172.0/137.2 were used in the analysis of gabapentin (2). Ten microliters of the sample extracts were injected. Peaks were integrated using Analyst quantitation software. The method was linear for (2) over the concentration range 0.002 to 2.5 μg/mL respectively.
The stability of gabapentin-containing prodrugs to Caco-2 homogenates was evaluated as follows:
Caco-2 Homogenate S9 Stability: Caco-2 cells were grown for 21 days prior to harvesting. Culture medium was removed and cell monolayers were rinsed and scraped off into ice-cold 10 mM sodium phosphate/0.15 M potassium chloride, pH 7.4. Cells were lysed by sonication at 4° C. using a probe sonicator. Lysed cells were then transferred into 1.5 mL centrifuge vials and centrifuged at 9000 g for 20 min at 4° C. The resulting supernatant (Caco-2 cell homogenate S9 fraction) was aliquoted into 0.5 mL vials and stored at −80° C. until used.
For stability studies, prodrug (5 μM) was incubated in Caco-2 homogenate S9 fraction (0.5 mg protein per mL) for 60 min at 37° C. Concentrations of intact prodrug and released drug were determined at zero time and 60 minutes using LC/MS/MS.

Molecule	metabolism of compound [%]
N[C@@H](Cc1ccc(C(F)(F)F)cc1)C(=O)NCC1(CC(=O)O)CCCCC1 [1aa, L-4-Trifluoromethylphenylalanine-Gabapentin]	< 50
N[C@@H](Cc1ccc(Br)cc1)C(=O)NCC1(CC(=O)O)CCCCC1 [1ah, L-4-Bromophenylalanine-Gabapentin]	< 50
N#Cc1cccc(C[C@H](N)C(=O)NCC2(CC(=O)O)CCCCC2)c1 [1al, L-3-Cyanophenylalanine-Gabapentin]	> 50
N#Cc1ccc(C[C@H](N)C(=O)NCC2(CC(=O)O)CCCCC2)cc1 [1am, L-4-Cyanophenylalanine-Gabapentin]	< 50
N[C@@H](Cc1cc(F)cc(F)c1)C(=O)NCC1(CC(=O)O)CCCCC1 [1ao, L-3,5-Difluorophenylalanine-Gabapentin]	> 50
NC(Cc1ccc(F)cc1F)C(=O)NCC1(CC(=O)O)CCCCC1 [1ap, D, L-2,4-Difluorophenylalanine-Gabapentin]	< 50
N[C@@H](Cc1cccc2ccccc12)C(=O)NCC1(CC(=O)O)CCCCC1 [1l, L-1-Naphthylalanine-Gabapentin]	> 50
L-Tyrosine-(O-2-Bromobenzyloxycarbonyl)-Gabapentin [4d]	> 50
